Results deposited as PubChem BioAssay AID1224826 (NIAID, 2016).

Assay: 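Regulators of Tlr4 signalling leading to Tnf-alpha expression in macrophages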 (primary screen)
System: RAW264.7 G9 macrophages from mouse bearing reporters for p65 (GFP) and the Tnf promoter (mCherry)
Reagents: siRNA pool against mouse genes, 100 nM
Time to read-out: 16 h of LPS stimulation, after 2 days of siRNA transfection
Treatment: bacterial lipopolysaccharide (Salmonella minnesota R595), 10 ng/ml
Measured: 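Nuclear mCherry signal of the Tnf promoter reporter measured by imaging after background removal, scaled to each plate median and turned into robust z-scores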
Direction: Tnf reporter robust z-score: higher = stronger Tnf promoter reporter signal after LPS
Active means: 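Called active when robust z-score is at most -1.3, matching the median of the Tlr4 knock-down control, or over 3; control wells and wells with under 50 cells never active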
Meaning of the calls: active = Tnf reporter clearly lowered or raised; inactive = no clear change in Tnf reporter
This is one part, drawn at random, of about 17,000 reagents. About 1,110 of all reagents (6.6%) count as active. 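Active means lowered or raised reporter signal; replicate intensities are raw and not normalised per plate.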 Further read-outs or replicates are left out here.

| gene | PubChem SID | Tnf reporter robust z-score | fewer than 50 cells in well | Call |
| --- | --- | --- | --- | --- |
| Ebp (GeneID 13595) | SID315466424 | 1.17 | enough cells in well | inactive |
| Rbbp4 (GeneID 19646) | SID315468908 | -0.22 | enough cells in well | inactive |
| Ccl25 (GeneID 20300) | SID315469137 | -0.71 | enough cells in well | inactive |
| Clps (GeneID 109791) | SID315476846 | 1.33 | enough cells in well | inactive |
| Rnf13 (GeneID 24017) | SID315470289 | 0.27 | enough cells in well | inactive |
| Calhm2 (GeneID 72691) | SID315474605 | 0.33 | enough cells in well | inactive |
| Or6c216 (GeneID 258791) | SID315480438 | 2.67 | enough cells in well | inactive |
| Tnfrsf22 (GeneID 79202) | SID315475666 | – | fewer than 50 cells per well; well left out of calls | inactive |
| Tnfrsf22 (GeneID 79202) | SID315481148 | 0.95 | enough cells in well | inactive |
| Csprs (GeneID 114564) | SID315477009 | 0.94 | enough cells in well | inactive |
| Mtfr2 (GeneID 71804) | SID315474333 | – | fewer than 50 cells per well; well left out of calls | inactive |
| Or5l14 (GeneID 258846) | SID315480488 | 0.14 | enough cells in well | inactive |
| Fuom (GeneID 69064) | SID315473709 | -0.66 | enough cells in well | inactive |
| Kcnd2 (GeneID 16508) | SID315467572 | 0.21 | enough cells in well | inactive |
| Phf1 (GeneID 21652) | SID315469641 | -0.59 | enough cells in well | inactive |
| Insig2 (GeneID 72999) | SID315474662 | 0.59 | enough cells in well | inactive |
| Pex2 (GeneID 19302) | SID315468837 | 0.06 | enough cells in well | inactive |
| Exoc3 (GeneID 211446) | SID315477682 | 2.04 | enough cells in well | inactive |
| Or5ak25 (GeneID 258426) | SID315480108 | -0.8 | enough cells in well | inactive |
| Or2y14 (GeneID 258464) | SID315480144 | 0 | enough cells in well | inactive |
| Pou3f1 (GeneID 18991) | SID315468632 | -0.46 | enough cells in well | inactive |
| Atg13 (GeneID 51897) | SID315470920 | 0.38 | enough cells in well | inactive |
| Polk (GeneID 27015) | SID315470513 | – | fewer than 50 cells per well; well left out of calls | inactive |
| Ostm1 (GeneID 14628) | SID315466919 | – | fewer than 50 cells per well; well left out of calls | inactive |
| Zfyve16 (GeneID 218441) | SID315478192 | 0.65 | enough cells in well | inactive |
| Uso1 (GeneID 56041) | SID315471350 | -1.03 | enough cells in well | inactive |
| Csn2 (GeneID 12991) | SID315466166 | -0.19 | enough cells in well | inactive |
| Gm11961 (GeneID 327860) | SID315481453 | 0.2 | enough cells in well | inactive |
| Rmnd5a (GeneID 68477) | SID315473540 | -0.33 | enough cells in well | inactive |
| Bola3 (GeneID 78653) | SID315475595 | – | fewer than 50 cells per well; well left out of calls | inactive |
| Or8g19 (GeneID 258826) | SID315480470 | 0.18 | enough cells in well | inactive |
| H1f1 (GeneID 80838) | SID315475728 | -0.05 | enough cells in well | inactive |
| Or8k37 (GeneID 258235) | SID315479943 | 1.78 | enough cells in well | inactive |
| Pcsk2 (GeneID 18549) | SID315468416 | 0.38 | enough cells in well | inactive |
| Rpl10a (GeneID 19896) | SID315469008 | -0.15 | enough cells in well | inactive |
| Ppy (GeneID 19064) | SID315468677 | – | fewer than 50 cells per well; well left out of calls | inactive |
| 4933427E11Rik (GeneID 66769) | SID315472631 | 0.59 | enough cells in well | inactive |
| Tas2r124 (GeneID 387351) | SID315481863 | 3.06 | enough cells in well | active |
| Gpr6 (GeneID 140741) | SID315477144 | -0.09 | enough cells in well | inactive |
| Rnase1 (GeneID 19752) | SID315468975 | 1.44 | enough cells in well | inactive |
| Ermn (GeneID 77767) | SID315475507 | 0.26 | enough cells in well | inactive |
| Etd (GeneID 69501) | SID315473814 | -1.38 | enough cells in well | active |
| Dhps (GeneID 330817) | SID315481618 | -0.62 | enough cells in well | inactive |
| Ifitm3 (GeneID 66141) | SID315472240 | -0.22 | enough cells in well | inactive |
| Il1r2 (GeneID 16178) | SID315467445 | -0.5 | enough cells in well | inactive |
| Vps13b (GeneID 666173) | SID315481302 | 2.45 | enough cells in well | inactive |
| Slc25a33 (GeneID 70556) | SID315474078 | -0.32 | enough cells in well | inactive |
| Map2 (GeneID 17756) | SID315468009 | 0.44 | enough cells in well | inactive |
| Arsg (GeneID 74008) | SID315474810 | -0.34 | enough cells in well | inactive |
| Ran (GeneID 19384) | SID315468891 | – | fewer than 50 cells per well; well left out of calls | inactive |
| Ctnnal1 (GeneID 54366) | SID315471203 | -1.1 | enough cells in well | inactive |
| Acsf2 (GeneID 264895) | SID315480745 | 0.08 | enough cells in well | inactive |
| Lrwd1 (GeneID 71735) | SID315474300 | 1.79 | enough cells in well | inactive |
| Duxbl1 (GeneID 278672) | SID315481010 | – | fewer than 50 cells per well; well left out of calls | inactive |
| Chil4 (GeneID 104183) | SID315476424 | 0.79 | enough cells in well | inactive |
| Tcp11 (GeneID 21463) | SID315469636 | – | fewer than 50 cells per well; well left out of calls | inactive |
| Src (GeneID 20779) | SID315469459 | – | fewer than 50 cells per well; well left out of calls | inactive |
| Apof (GeneID 103161) | SID315476362 | 0.81 | enough cells in well | inactive |
| St18 (GeneID 240690) | SID315479517 | 0.47 | enough cells in well | inactive |
| Nhlh2 (GeneID 18072) | SID315468173 | 1.73 | enough cells in well | inactive |
| Nkrf (GeneID 77286) | SID315475458 | 0.33 | enough cells in well | inactive |
| Mrc2 (GeneID 17534) | SID315467980 | 0.09 | enough cells in well | inactive |
| Chrna7 (GeneID 11441) | SID315465258 | -0.6 | enough cells in well | inactive |
| Aqp3 (GeneID 11828) | SID315465480 | 0.05 | enough cells in well | inactive |
| Dusp15 (GeneID 252864) | SID315479905 | -0.83 | enough cells in well | inactive |
| Sf3b5 (GeneID 66125) | SID315472231 | – | fewer than 50 cells per well; well left out of calls | inactive |
| Mettl1 (GeneID 17299) | SID315467910 | 1.06 | enough cells in well | inactive |
| Mir9-2hg (GeneID 320203) | SID315481257 | -0.72 | enough cells in well | inactive |
| Per2 (GeneID 18627) | SID315468468 | 0.66 | enough cells in well | inactive |
| Nol12 (GeneID 97961) | SID315476114 | -0.45 | enough cells in well | inactive |
| Pcdhb7 (GeneID 93878) | SID315475990 | -0.43 | enough cells in well | inactive |
| Glrx (GeneID 93692) | SID315475926 | -0.77 | enough cells in well | inactive |
| Rfxank (GeneID 19727) | SID315468961 | -0.34 | enough cells in well | inactive |

11 entries from above, showing only “fewer than 50 cells in well”:
Rnase1 (GeneID 19752) [SID315468975]	enough cells in well
Ermn (GeneID 77767) [SID315475507]	enough cells in well
Etd (GeneID 69501) [SID315473814]	enough cells in well
Dhps (GeneID 330817) [SID315481618]	enough cells in well
Ifitm3 (GeneID 66141) [SID315472240]	enough cells in well
Il1r2 (GeneID 16178) [SID315467445]	enough cells in well
Vps13b (GeneID 666173) [SID315481302]	enough cells in well
Slc25a33 (GeneID 70556) [SID315474078]	enough cells in well
Map2 (GeneID 17756) [SID315468009]	enough cells in well
Arsg (GeneID 74008) [SID315474810]	enough cells in well
Ran (GeneID 19384) [SID315468891]	fewer than 50 cells per well; well left out of calls
